## Primary screen of a compound library

The values are deposited in ChEMBL (CHEMBL3988442, “University of Dundee, Small-Polar-MMV Screening Library” (2021)).

The filed quantity is “Percent Effect” (%). How 0% and 100% were set is not recorded. Most values in the screen are low, and negative values occur. Compounds were drawn at random from those tested, without regard to their results. Two or more numbers in one place are separate tests of the same structure; such repeats can differ widely.

A: 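Whole-cell growth test on Mycobacterium tuberculosis, read after 4 days in a medium based on cholesterol and the lipid DPPC; the read-out is not stated. Tested at 50 µM. Higher reads as more growth inhibition (inferred: compounds with an IC50 in retests scored well above the rest). Of about 69,000 compounds tested this way, about 370 (0.54%) reached 50% or more in at least one test.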
B: 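Growth of Mycobacterium tuberculosis over 3 days (7H9 medium with glucose and tyloxapol); the read-out is not stated. Tested at 50 µM. Direction is inferred from retests: higher values go with more growth inhibition. Size under these conditions: about 69,000 compounds, about 760 of them at 50% or above in at least one test.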

For Cn1ccnc1CN1CCCCC1Cn1cccn1 (configuration not stated) the result was A: -11.93%; B: -20.44%. CCN1CCN(C(=O)c2nc(C)n(-c3ccccc3Cl)n2)CC1 read A: 10.43%; B: 19.72%. OC(CN1CCCCCCC1)c1ccc(OC(F)(F)F)cc1 (configuration not stated) read A: 3.195%; B: 47.85%. For O=C(c1ccco1)N1CCCC2(C1)CN(c1nncs1)CCO2 (configuration not stated) the result was A: 5.44%; B: -1.175%.

For CC1CCN(c2cc(CCC3CCCN3)ncn2)CC1.Cl (configuration not stated) the result was A: 3.891%; B: 18.34%. CC(C)NC(=O)N1CCC2(C1)CN(c1ccsc1)C(=O)CN2C.O=C(O)C(F)(F)F (configuration not stated) gave A: -30.76%; B: -10.21%. For CN1CC2(CCN(C(=O)C3CCC3)CC2)COc2ccccc2S1(=O)=O the result was A: 23.41%; B: 24.98%. Result for COc1ccc2c(c1)C1(CCN(Cc3ccoc3)CC1)N(C)CC2 was A: 15.48%; B: 23.24%.

Result for O=C1CC(NCc2ccc(OC(F)F)cc2)CN1Cc1cccc(F)c1 (configuration not stated) was A: 17.09%; B: 12.14%. CN(C)C(C(=O)NCC1(O)CCCCC1)c1c(F)cccc1F (configuration not stated) read A: -5.678%; B: -0.3669%. CNC(=O)CN(C)Cc1ccc(F)cc1Cl gave A: -18.66%; B: 1.467%. Cc1ccc(-c2cnc(CCC(=O)NCCN3CCOCC3)o2)cc1C gave A: -2.795%; B: -4.148%.

With CC(C)n1cnnc1C1CCCN(S(=O)(=O)CC2CCCC2)C1 (configuration not stated) the screen gave A: -6.312%; B: 17.19%. C[C@@H]1CN(Cc2nnc(-c3cccnc3)o2)CC[C@]1(C)O gave A: -31.3%; B: -26.72%. With CCOCCCNC(=O)C1CCC(=O)N(CCc2ccc(Cl)cc2)C1 (configuration not stated) the screen gave A: 4.373%; B: 1.83%. With [H][C@@]12CCN(C(=O)c3ccnnc3)C[C@@]1([H])O[C@H](c1nc(C)c(C)s1)C2 the screen gave A: 16.41%; B: 35.44%.

CCn1c(Cn2cncn2)nnc1C1CCN(Cc2ccccn2)CC1 read A: -42.86%; B: -41.36%. For Cc1cc(C)n(Cc2cccc(C(=O)N(CCC#N)CCC#N)c2)n1 the result was A: -3.305%; B: -35.12%. Result for Cn1nnc2cc(C(=O)N3CCC(Nc4cccnn4)CC3)ccc21 was A: -2.418%; B: 19.24%. [H][C@]12CC[C@]([H])(CN(Cc3cn(C)nc3C)C1)N(Cc1c(C)noc1C)C2=O gave A: -75.82%; B: -65.1%.

For Cc1ncccc1C(=O)Nc1cccc(OCC(F)F)n1 the result was A: -8.263%; B: 16.69%. Result for COc1ncccc1NC(=O)N1CCCC(CNC(=O)OC(C)(C)C)C1 (configuration not stated) was A: 7.596%; B: 17.43%. Result for Cc1cc(C)nc(C2CCN(C(=O)c3cnc(N(C)C)nc3)C2)n1 (configuration not stated) was A: 15.33%; B: 14.28%. Cc1ccc(NCC2(O)CCNCC2)cc1C read A: -11.9%; B: -3.707% & 3.136%.

Result for CC(C(=O)NCc1ccnc(N2CCOCC2)c1)n1cccn1 (configuration not stated) was A: 6.52%; B: -10.89%. Result for COc1cccc(CC(=O)N2Cc3nccn3CC(CN(C)C)C2)c1 (configuration not stated) was A: 3.759%; B: 6.338%. O=C(NCCN1CCCCCC1)c1cccc(Cl)c1Cl gave A: -4.03%; B: 28.11%. O=C1Nc2ccccc2CC12CCCN2Cc1cccnc1 (configuration not stated) gave A: -6.054%; B: 3.161%.

CC(C)(C)CC(=O)NC(C)(C(N)=O)c1cccc(Cl)c1 (configuration not stated) read A: -3.096%; B: -20.9%. Result for COc1ccccc1OCc1cc(C(=O)N2CCC(C(C)O)CC2)n[nH]1 (configuration not stated) was A: -26.47%; B: -13.54%. CCN(CC)C(=O)c1nnsc1-c1ccc(Cl)cc1 gave A: -2.641%; B: -28.89% & 7.732%. Result for [H][C@@]12C=C[C@@]([H])(C1)[C@H](C(=O)N1CCN(c3cc(C)nc(C)c3)CC1)C2 was A: -3.324%; B: -1.539% & -17.65%.

With CC(C(=O)N1CCN(c2cnccn2)CC1)n1cncn1 (configuration not stated) the screen gave A: -18.85%; B: -18.6%. CC(c1ccccc1)N(C)C(=O)CN1CCN(c2cnccn2)CC1 (configuration not stated) gave A: 5.733%; B: 11.61% & -1.316%. With Cc1ccccc1CS(=O)(=O)c1nnc(N2CCOCC2)s1 the screen gave A: 11.03%; B: -4.831% & 12.27%. Result for Cc1cc(CN2CCc3cncnc3C2)no1 was A: -16.69%; B: -14.83%.

CNC(=O)C1CCN(C(=O)c2ccn(-c3ccc(F)cc3)n2)CC1 read A: 0.8044%; B: -23.07%. O=C(NS(=O)(=O)c1cccc(C(F)(F)F)c1)c1cnsn1 read A: -1.407%; B: -8.48% & -15.17%. COc1ccccc1CNC(=O)CN(C)C(C)c1nccs1 (configuration not stated) read A: 5.292%; B: -5.306%. For CC(C)C(=O)NC1CC2(CCN(CC(=O)N(C)C)CC2)c2ccccc21.O=C(O)C(F)(F)F (configuration not stated) the result was A: -6.778%; B: -7.06%.

With Cc1ncsc1C(=O)OCC1CCN(c2ccccc2)C1 (configuration not stated) the screen gave A: -10.05%; B: -4.55%. For COCC(=O)N1CCCn2c(CN3CCCC3=O)nnc2C1 the result was A: -8.015%; B: -16.09%. Result for COc1ccc(CN2CCC3(CC(Nc4ccncn4)C3)C2)c(OC)c1 (configuration not stated) was A: -5.031%; B: -3.683%. For COc1ccccc1C1Cn2c(C)cnc2CN1Cc1c[nH]nc1C (configuration not stated) the result was A: 2.305%; B: -16.3%.

For CCC(C)N1CCc2c(C(=O)N3CCOCC3)n[nH]c2C1 (configuration not stated) the result was A: -7.461%; B: -5.111%.

The last 4 entries again:

structure	A	B
COCC(=O)N1CCCn2c(CN3CCCC3=O)nnc2C1	-8.015	-16.09
COc1ccc(CN2CCC3(CC(Nc4ccncn4)C3)C2)c(OC)c1 (configuration not stated)	-5.031	-3.683
COc1ccccc1C1Cn2c(C)cnc2CN1Cc1c[nH]nc1C (configuration not stated)	2.305	-16.3
CCC(C)N1CCc2c(C(=O)N3CCOCC3)n[nH]c2C1 (configuration not stated)	-7.461	-5.111